This experiment concerns the target p53 (UniProt P10361). Briefly: co-IP; coIP of USP11 and p53; cells, antibodies and bait not described; the section is on microglial cells.

Protein sequences, listed by entry. Tags and fused reporters are not part of them.
UniProt P10361: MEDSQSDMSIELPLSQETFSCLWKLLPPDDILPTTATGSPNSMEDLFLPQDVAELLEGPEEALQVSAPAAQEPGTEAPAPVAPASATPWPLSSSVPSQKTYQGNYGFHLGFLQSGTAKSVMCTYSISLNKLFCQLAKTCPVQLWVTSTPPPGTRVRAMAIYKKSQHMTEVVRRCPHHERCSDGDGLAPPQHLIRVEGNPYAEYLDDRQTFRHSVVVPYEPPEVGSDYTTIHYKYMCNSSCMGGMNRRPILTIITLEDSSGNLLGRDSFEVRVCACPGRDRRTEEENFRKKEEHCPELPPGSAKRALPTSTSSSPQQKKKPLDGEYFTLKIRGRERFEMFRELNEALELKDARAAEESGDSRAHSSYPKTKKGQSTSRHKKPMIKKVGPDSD

These are yes or no findings as the source states them, for the method shown. In cells and extracts the contact can be indirect. Some results given as binding are weak or reduced against the parent protein; the word gives no strength.

B1: Ubiquitin-specific protease 11 (enzyme, UniProt Q5D006 1-921)
chain: MAAVAADPAAAAVPASAEDRETQPEAMPDLDQQWRQIGNGRERPLRAGESWFLVEKHWYKQWEAYVKGGDQDASTFPGSINNSGLFEDQISWHLRERLVEGDDYVLLPAPAWNYLVSWYGLKDDQPPIERKVIELPGIRKVEVYPIELLLVQHSDMETALTIQFSYSDSVDLVLQTAREQFLVEPQEDTRLWTKNSEGSLDRLCNTQITLLDACLETGQLVIMETRNKDGTWPSAQLCGMNNMPDEDEDFQGQPGICGLTNLGNTCFMNSALQCLSNVPQLTEYFLNNRYLEELNFRNPLGMKGELAEAYADLVKQTWSGYHRSIVPNVFKNKVGHFASQFLGYQQHDSQELLSFLLDGLHEDLNRVKKKEYVELCNGAGRPDLEVAQEAWQNHKRRNDSVIVDTFHGLFKSTLVCPDCGNVSVTFDPFCYLSVPLPVCSRRVLEVFFVPMDPRRKPEQHRVVVPKKGNISDLCVALSTHTSVAPDKMIVADVFSHRFYKLYQLEDPLSGILDRDDIFVYEVTGRIEPVEGSRDDIVVPVYLRERTPSRDYNNSYYGLILFGHPLLVSVPRDRFSWEGLYNILMYRLSRYVTKPTSDDDDGDEKGDENEDEDVEDDSSSEEEKEEMSGPTDNDGTQESEQEQAGTSSGVTGRCPSLLDNSLHTSQWPPRRRRKQLFTLQTVNSNGTSDRTTSPEEAQTQPYIAMDWEPEMKRRYYDEVEAEGYVKHDCVGYMLKKNPVQLKECIKLFTTVETLEKENPWYCSSCKQHQLATKKLDLWMLPEVLIIHLKRFSFSKFSREKLDTLVQFPIRDLDFSEFVIKPKNESAPDLYKYDLIAVSNHYGGMRDGHYTTFACNKDSGQWHYFDDNSVSPVNENQIESKAAYVLFYQRQDVGRRQSQTASSETPTSPASSSTPNSDIMDVN
With B1, the binding result is reported as “binds”.

Values taken from paper PMC8178085.
